Results taken from patent US20190322720A1.
Results are given in words; binding and its absence hold for the method and conditions named. Some entries that bind do so weakly or less than the wild type.

Amino acid sequences for entries named in this document (tags omitted). A change or cut given only in a name is not applied to a line headed by its entry.
UniProt P13688: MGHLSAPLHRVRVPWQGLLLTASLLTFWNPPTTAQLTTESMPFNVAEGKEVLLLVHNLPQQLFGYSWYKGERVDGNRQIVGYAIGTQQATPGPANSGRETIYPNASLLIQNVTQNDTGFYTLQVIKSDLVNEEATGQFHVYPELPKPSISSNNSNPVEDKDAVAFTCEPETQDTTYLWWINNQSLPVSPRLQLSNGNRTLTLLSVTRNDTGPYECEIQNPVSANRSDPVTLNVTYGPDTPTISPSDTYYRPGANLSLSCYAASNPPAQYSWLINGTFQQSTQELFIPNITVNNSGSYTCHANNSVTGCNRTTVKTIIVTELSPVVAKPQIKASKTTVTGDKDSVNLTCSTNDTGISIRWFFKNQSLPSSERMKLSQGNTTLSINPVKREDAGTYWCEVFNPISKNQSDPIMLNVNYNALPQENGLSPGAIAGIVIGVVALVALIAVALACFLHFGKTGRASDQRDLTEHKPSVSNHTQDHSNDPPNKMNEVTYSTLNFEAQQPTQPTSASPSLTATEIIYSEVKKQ
UniProt P31997: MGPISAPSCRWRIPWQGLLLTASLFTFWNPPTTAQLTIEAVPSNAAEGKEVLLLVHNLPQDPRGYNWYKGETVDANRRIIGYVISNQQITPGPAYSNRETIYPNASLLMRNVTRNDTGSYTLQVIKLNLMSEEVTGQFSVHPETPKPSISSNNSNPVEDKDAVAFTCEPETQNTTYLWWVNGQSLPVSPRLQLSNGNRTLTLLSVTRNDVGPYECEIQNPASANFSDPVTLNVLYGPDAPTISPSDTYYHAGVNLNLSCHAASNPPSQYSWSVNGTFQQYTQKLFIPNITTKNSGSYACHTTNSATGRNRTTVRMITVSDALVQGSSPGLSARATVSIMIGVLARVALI
UniProt P40199: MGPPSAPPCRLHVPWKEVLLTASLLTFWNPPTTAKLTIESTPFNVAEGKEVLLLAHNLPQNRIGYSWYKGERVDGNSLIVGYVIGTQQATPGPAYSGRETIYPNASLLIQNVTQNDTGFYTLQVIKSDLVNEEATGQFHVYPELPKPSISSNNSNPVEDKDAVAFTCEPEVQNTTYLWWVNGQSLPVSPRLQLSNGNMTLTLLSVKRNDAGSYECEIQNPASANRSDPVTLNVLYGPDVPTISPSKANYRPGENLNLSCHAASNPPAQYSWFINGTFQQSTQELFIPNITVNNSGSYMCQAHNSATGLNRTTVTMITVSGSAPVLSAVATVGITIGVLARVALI

Columns and labels:
[1] = biological target: CEACAM1 conversion mutant 300His→Gln, 302Asn→His (Homo sapiens (Human)) (UniProt P13688); test: conversion mutagenesis
[2] = biological target: CEACAM8 conversion mutant 300 His→Gln, 301Thr→Ala, 302Thr→His (Homo sapiens (Human)) (UniProt P31997); test: conversion mutagenesis
[3] = biological target: CEACAM6 residues 149-319 (human) (UniProt P40199); test: binding to expressed truncation construct
[4] = biological target: CEACAM6 residues 191-319 (human) (UniProt P40199); test: binding to expressed truncation construct
[5] = biological target: CEACAM6 residues 201-319 (human) (UniProt P40199); test: binding to expressed truncation construct
[6] = biological target: CEACAM6 residues 34-311 (human) (UniProt P40199); test: binding to expressed truncation construct
[7] = biological target: CEACAM6 residues 34-313 (human) (UniProt P40199); test: binding to expressed truncation construct
[8] = biological target: CEACAM6 residues 34-315 (human) (UniProt P40199); test: binding to expressed truncation construct
[9] = biological target: CEACAM6 residues 34-317 (human) (UniProt P40199); test: binding to expressed truncation construct
[10] = biological target: CEACAM6 residues 34-319 (human) (UniProt P40199); test: binding to expressed truncation construct
[11] = biological target: CEACAM6 residues 34-320 (human) (UniProt P40199); test: binding to expressed truncation construct
[12] = biological target: CEACAM6 residues 34-321 (human) (UniProt P40199); test: binding to expressed truncation construct
[13] = biological target: CEACAM6 residues 34-326 (human) (UniProt P40199); test: binding to expressed truncation construct

binding [3]: binds
binding [4]: binds
binding [5]: binds
binding [6]: binds
binding [7]: binds
binding [8]: binds
binding [9]: binds
binding [10]: binds
binding [11]: binds
binding [12]: binds
binding [13]: binds
B1: 16C3 antibody (antibody, V domains shown)
VL: LMTQSPASLSASVGETVTITCGASENIYGALNWYQRKQGKSPQLLIYGASNLADGMSSRFSGSGSGRQYSLKISSLHPDDVATYYCQNVLSSPYTFGGGTKLEIKK
V domain: LEESGPEVVRPGVSVKISCKGSGYTFTDYAMHWVKQSHAKSLEWIGLISTYSGDTKYNQNFKGKATMTVDKSSNTAYMELARLTSEDSAIYYCARGDYSGSRYWFAYWGQGTTVTR
binding [1]: binds
binding [2]: binds
